Where a name gives a salt, the structure may show the parent alone. The list shows a part of the results. This data set is noisy: repeats of one test often differ as much as different tests do.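 Cells: ReNCell VM human fetal ventral-midbrain neural progenitors, differentiated mitogen-free. Blinded raters compared doublecortin-stained (early neurons) or tyrosine hydroxylase-stained (dopaminergic neurons) images with untreated wells, where 0 means no change. After repeats and both raters were averaged, compounds scoring 2 or above became hits for retesting.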
Tests used:
[1] = system: ReNCell VM; experiment: neuronal differentiation score (DCX+ cell fraction vs untreated, manual image score) (score (-3 to 3)); higher = more neuronal differentiation; details: 2 uM, 2 weeks
[2] = system: ReNCell VM; experiment: dopaminergic neuron differentiation score (TH+ cell fraction vs untreated, manual image score) (score (0 to 3)); higher = more TH+ dopaminergic neuron differentiation; details: 2 uM, 4 weeks, BDNF 10 ng/ml + GDNF 10 ng/ml

CCN1CCCC1CNC(=O)c1cc(S(=O)(=O)CC)c(N)cc1OC (stereo not drawn) [Amisulpride]
inactive: neuronal differentiation score ([1]; library: Prestwick) 0 | neuronal differentiation score ([1]; library: Tocriscreen) 0 | dopaminergic neuron differentiation score ([2]; library: Prestwick) 0 | dopaminergic neuron differentiation score ([2]; library: Tocriscreen) 0

CC(=N)NCc1cccc(CN)c1 [1400W dihydrochloride]
inactive: neuronal differentiation score ([1]; library: LOPAC) 0 | neuronal differentiation score ([1]; library: Tocriscreen) 0 | dopaminergic neuron differentiation score ([2]; library: LOPAC) 0 | dopaminergic neuron differentiation score ([2]; library: Tocriscreen) 0

CCc1cccc2c3c([nH]c12)C(CC)(CC(=O)O)OCC3 (stereo not drawn) [Etodolac]
inactive: neuronal differentiation score ([1]; library: LOPAC) 0 | neuronal differentiation score ([1]; library: Prestwick) 0 | dopaminergic neuron differentiation score ([2]; library: LOPAC) 0 | dopaminergic neuron differentiation score ([2]; library: Prestwick) 0

Oc1c2ccccc2c2c3c(cccc13)N=N2
inactive: neuronal differentiation score ([1]; library: LOPAC) 0 | neuronal differentiation score ([1]; library: Tocriscreen) 0 | dopaminergic neuron differentiation score ([2]; library: LOPAC) 0 | dopaminergic neuron differentiation score ([2]; library: Tocriscreen) 0

c1ccc(CN(CC2=NCCN2)c2ccccc2)cc1 [Antazoline hydrochloride]
inactive: neuronal differentiation score ([1]; library: Prestwick) 0 | neuronal differentiation score ([1]; library: Tocriscreen) 0 | dopaminergic neuron differentiation score ([2]; library: Prestwick) 0 | dopaminergic neuron differentiation score ([2]; library: Tocriscreen) 0

COc1ccc(Cl)cc1C(=O)NCCc1ccc(S(=O)(=O)NC(=O)NC2CCCCC2)cc1 [Glibenclamide]
inactive: neuronal differentiation score ([1]; library: Prestwick) 0 | neuronal differentiation score ([1]; library: Tocriscreen) 0 | dopaminergic neuron differentiation score ([2]; library: Prestwick) 0 | dopaminergic neuron differentiation score ([2]; library: Tocriscreen) 0

CN1CCN2c3ccccc3Cc3ccccc3C2C1 (stereo not drawn) [Mianserin hydrochloride]
inactive: neuronal differentiation score ([1]; library: LOPAC) 0 | neuronal differentiation score ([1]; library: Tocriscreen) 0 | dopaminergic neuron differentiation score ([2]; library: LOPAC) 0 | dopaminergic neuron differentiation score ([2]; library: Tocriscreen) 0

OC(CN1CCC(Cc2ccc(F)cc2)CC1)c1ccc(Cl)cc1 (stereo not drawn) [Eliprodil]
inactive: neuronal differentiation score ([1]; library: LOPAC) 0 | neuronal differentiation score ([1]; library: Tocriscreen) 0 | dopaminergic neuron differentiation score ([2]; library: LOPAC) 0 | dopaminergic neuron differentiation score ([2]; library: Tocriscreen) 0

C#C[C@]1(O)CC[C@H]2[C@@H]3CCC4=Cc5oncc5C[C@]4(C)[C@H]3CC[C@@]21C [Danazol]
inactive: neuronal differentiation score ([1]; library: LOPAC) 0 | neuronal differentiation score ([1]; library: Prestwick) 0 | dopaminergic neuron differentiation score ([2]; library: LOPAC) 0 | dopaminergic neuron differentiation score ([2]; library: Prestwick) 0

CN(C)CCCSC(=N)N [Dimaprit dihydrochloride]
inactive: neuronal differentiation score ([1]; library: Prestwick) 0 | neuronal differentiation score ([1]; library: Tocriscreen) 0 | dopaminergic neuron differentiation score ([2]; library: Prestwick) 0 | dopaminergic neuron differentiation score ([2]; library: Tocriscreen) 0

CCCN(CC1CC1)c1nc(C)nc(Nc2c(Cl)cc(Cl)cc2Cl)c1Cl
inactive: neuronal differentiation score ([1]; library: LOPAC) 0 | neuronal differentiation score ([1]; library: Tocriscreen) 0 | dopaminergic neuron differentiation score ([2]; library: LOPAC) 0 | dopaminergic neuron differentiation score ([2]; library: Tocriscreen) 0

Cn1ccc2cc3c(cc21)CCN3C(=O)Nc1cccnc1
inactive: neuronal differentiation score ([1]; library: LOPAC) 0 | neuronal differentiation score ([1]; library: Tocriscreen) -1 | dopaminergic neuron differentiation score ([2]; library: LOPAC) 0 | dopaminergic neuron differentiation score ([2]; library: Tocriscreen) 0

O=C1NC(c2cccc([N+](=O)[O-])c2)=CCN1c1ccccc1O [Icilin]
inactive: neuronal differentiation score ([1]; library: LOPAC) 0 | neuronal differentiation score ([1]; library: Tocriscreen) 0 | dopaminergic neuron differentiation score ([2]; library: LOPAC) 0 | dopaminergic neuron differentiation score ([2]; library: Tocriscreen) 0

C[C@]12CC[C@@H]3c4ccc(O)cc4C[C@@H](CCCCCCCCC[S+]([O-])CCCC(F)(F)C(F)(F)F)[C@H]3[C@@H]1CC[C@@H]2O (stereo partly drawn) [Fulvestrant]
inactive: neuronal differentiation score ([1]; library: LOPAC) 0 | neuronal differentiation score ([1]; library: Prestwick) 0 | dopaminergic neuron differentiation score ([2]; library: LOPAC) 0 | dopaminergic neuron differentiation score ([2]; library: Prestwick) 0

Of the compounds above, these have a carbonyl joined to an NH by a bond outside any ring:
CCN1CCCC1CNC(=O)c1cc(S(=O)(=O)CC)c(N)cc1OC (stereo not drawn) [Amisulpride]
inactive: neuronal differentiation score ([1]; library: Prestwick) 0 | neuronal differentiation score ([1]; library: Tocriscreen) 0 | dopaminergic neuron differentiation score ([2]; library: Prestwick) 0 | dopaminergic neuron differentiation score ([2]; library: Tocriscreen) 0

COc1ccc(Cl)cc1C(=O)NCCc1ccc(S(=O)(=O)NC(=O)NC2CCCCC2)cc1 [Glibenclamide]
inactive: neuronal differentiation score ([1]; library: Prestwick) 0 | neuronal differentiation score ([1]; library: Tocriscreen) 0 | dopaminergic neuron differentiation score ([2]; library: Prestwick) 0 | dopaminergic neuron differentiation score ([2]; library: Tocriscreen) 0

Cn1ccc2cc3c(cc21)CCN3C(=O)Nc1cccnc1
inactive: neuronal differentiation score ([1]; library: LOPAC) 0 | neuronal differentiation score ([1]; library: Tocriscreen) -1 | dopaminergic neuron differentiation score ([2]; library: LOPAC) 0 | dopaminergic neuron differentiation score ([2]; library: Tocriscreen) 0

Next part:

OC(CCN1CCCCC1)(c1ccccc1)C1CC2C=CC1C2 (stereo not drawn) [Biperiden hydrochloride]
inactive: neuronal differentiation score ([1]; library: LOPAC) 0 | neuronal differentiation score ([1]; library: Prestwick) 0 | dopaminergic neuron differentiation score ([2]; library: LOPAC) 0 | dopaminergic neuron differentiation score ([2]; library: Prestwick) 0

Nc1nc2ccc(OC(F)(F)F)cc2s1 [Riluzole hydrochloride]
inactive: neuronal differentiation score ([1]; library: Prestwick) 0 | neuronal differentiation score ([1]; library: Tocriscreen) 0 | dopaminergic neuron differentiation score ([2]; library: Prestwick) 0 | dopaminergic neuron differentiation score ([2]; library: Tocriscreen) 0

Brc1c(NC2=NCCN2)ccc2nccnc12
inactive: neuronal differentiation score ([1]; library: LOPAC) 0 | neuronal differentiation score ([1]; library: Tocriscreen) 0 | dopaminergic neuron differentiation score ([2]; library: LOPAC) 0 | dopaminergic neuron differentiation score ([2]; library: Tocriscreen) 0

CC1(C)O[C@@H]2[C@@H](CO[C@@]3(COS(N)(=O)=O)OC(C)(C)O[C@@H]23)O1 [Topiramate]
inactive: neuronal differentiation score ([1]; library: Prestwick) 0 | neuronal differentiation score ([1]; library: Tocriscreen) 0 | dopaminergic neuron differentiation score ([2]; library: Prestwick) 0 | dopaminergic neuron differentiation score ([2]; library: Tocriscreen) 0

CC(C)COCC(CN(Cc1ccccc1)c1ccccc1)N1CCCC1 (stereo not drawn) [Bepridil hydrochloride]
inactive: neuronal differentiation score ([1]; library: LOPAC) 0 | neuronal differentiation score ([1]; library: Prestwick) 0 | dopaminergic neuron differentiation score ([2]; library: LOPAC) 0 | dopaminergic neuron differentiation score ([2]; library: Prestwick) 0

CCN(CC)CCNC(=O)c1cc(S(C)(=O)=O)ccc1OC [Tiapride hydrochloride]
inactive: neuronal differentiation score ([1]; library: LOPAC) 0 | neuronal differentiation score ([1]; library: Prestwick) 0 | dopaminergic neuron differentiation score ([2]; library: LOPAC) 0 | dopaminergic neuron differentiation score ([2]; library: Prestwick) 0

CN=c1nc(-c2ccccc2)n(-c2ccccc2)s1
inactive: neuronal differentiation score ([1]; library: LOPAC) 1 | neuronal differentiation score ([1]; library: Tocriscreen) -3 | dopaminergic neuron differentiation score ([2]; library: LOPAC) 0 | dopaminergic neuron differentiation score ([2]; library: Tocriscreen) 0

CCc1c2c(nc3ccc(OC(=O)N4CCC(N5CCCCC5)CC4)cc13)-c1cc3c(c(=O)n1C2)COC(=O)[C@]3(O)CC
inactive: neuronal differentiation score ([1]; library: Spectrum) 0 | neuronal differentiation score ([1]; library: Tocriscreen) 0 | dopaminergic neuron differentiation score ([2]; library: Spectrum) 0 | dopaminergic neuron differentiation score ([2]; library: Tocriscreen) 0

CC(C)(C=O)Cc1cc(C(C)(C)C)c(O)c(C(C)(C)C)c1
inactive: neuronal differentiation score ([1]; library: LOPAC) 0 | neuronal differentiation score ([1]; library: Tocriscreen) 0 | dopaminergic neuron differentiation score ([2]; library: LOPAC) 0 | dopaminergic neuron differentiation score ([2]; library: Tocriscreen) 0

CCOC(=O)c1ncn2c1CN(C)C(=O)c1cc(F)ccc1-2 [Flumazenil]
inactive: neuronal differentiation score ([1]; library: LOPAC) 0 | neuronal differentiation score ([1]; library: Tocriscreen) 0 | dopaminergic neuron differentiation score ([2]; library: LOPAC) 0 | dopaminergic neuron differentiation score ([2]; library: Tocriscreen) 0

C[N+](C)(C)CCCCCNCC12CC3CC(CC(C3)C1)C2
inactive: neuronal differentiation score ([1]; library: LOPAC) 0 | neuronal differentiation score ([1]; library: Tocriscreen) 0 | dopaminergic neuron differentiation score ([2]; library: LOPAC) 0 | dopaminergic neuron differentiation score ([2]; library: Tocriscreen) 0

CNCC[C@@H](Oc1ccccc1C)c1ccccc1 [Tomoxetine hydrochloride]
inactive: neuronal differentiation score ([1]; library: Prestwick) 0 | neuronal differentiation score ([1]; library: Tocriscreen) 0 | dopaminergic neuron differentiation score ([2]; library: Prestwick) 0 | dopaminergic neuron differentiation score ([2]; library: Tocriscreen) 0

C#CCN(C)CCCOc1ccc(Cl)cc1Cl [Clorgyline hydrochloride]
inactive: neuronal differentiation score ([1]; library: LOPAC) 0 | neuronal differentiation score ([1]; library: Prestwick) 0 | dopaminergic neuron differentiation score ([2]; library: LOPAC) 0 | dopaminergic neuron differentiation score ([2]; library: Prestwick) 0

Source: the supplement of paper PMC4635364
